Measured values reported in patent US6913748B2, “Cross-linkers with high reactivity and solubility and their use in the preparation of conjugates for targeted delivery of small molecule drugs” (Immunogen, Inc., priority 2002, dated 2005).

What was measured:
Set-up in all cases: species or system murine
N901 antibody with DM1 = assay: Conjugation (disulfide exchange) of linker-modified N901 antibody with DM1; conditions: for % Efficiency (DM1 per antibody divided by linker per antibody times 100) / DM1/Ab: 2 hours
Method: (§1) SPP or SSNPP linker was dissolved in ethanol at a concentration of approximately 10 mM. Antibody was dialyzed into buffer A (50 mM KPi, 50 mM NaCl, 2 mM EDTA, pH 6.5). For the linker reaction, the antibody was at 8 mg/ml, and 7 equivalents of linker were added while stirring in the presence of 5% (v/v) ethanol. The reaction was allowed to proceed at ambient temperature for 90 minutes. Unreacted linker was removed from the antibody by Sephadex G25 gel filtration using a Sephadex G25 column equilibrated with Buffer A at pH 6.5 or 150 mM potassium phosphate buffer containing 100 mM NaCl, pH 7.4 as indicated. For the SPP linker, the extent of modification was assessed by release of pyridine-2-thione using 50 mM DTT and measuring the absorbance at 343 nm as described below (ε343=8080 M^−1 cm^−1 for free pyridine-2-thione). For SSNPP, modification was assessed directly by measuring the absorbance at 325 nm (ε325=10,964 M^−1 cm^−1 for the 4-nitropyridyl-2-dithio group linked to antibody). For the conjugation reaction, thiol-containing drug (either DM1 or DC4) was dissolved in DMA (N,N-dimethylacetamide) at a concentration of approximately 10 mM. The drug (0.8-1.7-fold molar excess relative to the number of linker molecules per antibody as indicated) was slowly added with stirring to the antibody which was at a concentration of 2.5 mg/ml in buffer A (pH 6.5 or pH 7.4) in a final concentration of 3% (v/v) DMA. The reaction was allowed to proceed at ambient temperature for the indicated times. Drug-conjugated antibody was purified using a Sephadex G25 column equilibrated with buffer B (PBS, pH 6.5). For DML, the extent of drug conjugation to antibody was assessed by measuring A252 and A280 of the conjugate as described below. A similar approach was used for DC4 (see below).
Calculating Ab and DM1 component concentrations of Ab-DM1. The Ab and DM1 both absorb at the two wavelengths used to measure each component separately, i.e., 280 and 252 nm. The components are quantified using the following algebraic expressions which account for the contribution of each component at each wavelength (CAb is the molar concentration of Ab and CD is the molar concentration of DM1):
Each equation is solved for CAb: [formula] [formula]
and an equality is set up (equation 1a=equation 2a) and solved for CD: [formula]
Once the CD is calculated, the value is used to solve for CAb in equation 1a (or 2a) above. The ratio of DM1:Ab can then be calculated. The mg/mL (g/L) concentration of antibody is calculated using a molecular weight of 147,000 g/mole and the concentration of DM1 is calculated using a molecular weight of 736.5 g/mole (linked DM1)
Efficiency of disulfide exchange is increased with SSNPP. […] The percent efficiency was calculated by dividing the value for DM1 per antibody by the linker per antibody ratio times 100. […] The efficiency of conjugation of N901 with SPP in these experiments was 70% at pH 6.5 and 77% at pH 7.4. […] An additional potential benefit of the increased efficiency with SSNPP is that a reduced molar excess of DM1 may be used in the conjugation reaction. […] A comparison of the time course of the reaction of DM1 with antibody that had been modified with SSNPP or SPP is shown in FIG. 8. In each case the modified antibody was treated with a 1.1-fold molar excess of DM1 per mole of linker incorporated. […] The ability to use 1) a lower molar excess of DM1 and 2) fewer linkers per antibody allows a reduction in the amount of drug needed to achieve a target DM1 to antibody ratio by as much as 50% when using SSNPP as the cross-linker instead of SPP.

N901 antibody = assay: Modification of antibody with linker (linker per antibody ratio by absorbance)
Method: as §1
Measurement of Releasable Pyridine-2-thione and Ab Concentration of SPP-Modified Ab. The molar ratio of pyridine-2-thione released per mole of antibody is calculated by measuring the A280 of the sample and then the increase in the A343 of the sample after adding DTT (50 μL of 1 M DTT/mL of sample). The concentration of DTT-released pyridine-2-thione is calculated using an ε343 of 8080 M^−1cm^−1. The concentration of antibody can then be calculated using an ε280 of 194,712 M^−1cm^−1 after subtracting the contribution of pyridine-2-thione absorbance at 280 nm (A343 nm post DTT×5100/8080) from the total A280 measured before DTT addition. The molar ratio of pyridine-2-thione:Ab can then be calculated. The mg/mL (g/L) concentration of Ab is calculated using a molecular weight of 147,000 g/mole.
Measurement of antibody-linked 5-Nitropyridyl-2-dithio Groups and Ab Concentration of SSNPP-Modified Ab. The molar ratio of the 4-nitropyridyl-2-dithio groups linked per mole of antibody is calculated by measuring the A280 and A325 of the sample without DTF treatment. The number of antibody-bound 4-nitropyridyl-2-dithio groups is calculated using an ε325 nm of 10,964 M^−1cm^−1. The concentration of antibody can then be calculated using an ε280 nm of 194,712 M^−1cm^−1 after subtracting the contribution of the 5-nitropyridyl-2-dithio group absorbance at 280 nm (A325 nm×3344/10964) from the total A280 nm measured. The molar ratio of 4-nitropyridyl-2-dithio groups:Ab can then be calculated. The mg/mL (g/L) concentration of Ab is calculated using a molecular weight of 147,000 g/mole.

N901 antibody with DC4 = assay: Conjugation (disulfide exchange) of linker-modified N901 antibody with DC4; conditions: pH 7.4, 1.4-fold molar excess of DC4 per linker
Method: as §1
A comparison of conjugation efficiencies using SSNPP and SPP when conjugating the N901 antibody with the DNA-alkylating drug, DC4, a CC-1065 analogue, is shown in Table 3. […] Only much prolonged reaction times may lead to 100% completeness.

[1] = pH 6.5, 1.7-fold molar excess of DM1 per linker
[2] = pH 7.4, 1.1-fold molar excess of DM1 per linker
[3] = pH 7.4, 1.7-fold molar excess of DM1 per linker
[4] = Table 1, N901 antibody, used for conjugation at pH 6.5
[5] = Table 1, N901 antibody, used for conjugation at pH 7.4
[6] = Table 2, antibody used for conjugation at pH 7.4 with 1.1-fold DM1
[7] = Table 3, N901 antibody used for conjugation with DC4

SMILES	conjugation efficiency (FIG. 7) (N901 antibody with DM1; 1.1-fold molar excess of DM1) [%]	amount of drug required to obtain comparable conjugation results, lower than for SPP-modified antibody (N901 antibody with DM1; Table 2 conditions, SSNPP-modified vs SPP-modified antibody) [%]	reduction in the amount of drug needed to achieve a target DM1 to antibody ratio, instead of SPP (N901 antibody with DM1; lower molar excess of DM1 and fewer linkers per antibody) [%]	% Efficiency (DM1 per antibody divided by linker per antibody times 100) (N901 antibody with DM1; [1]) [%]	DM1/Ab (N901 antibody with DM1; [1])	DM1/Ab (N901 antibody with DM1; [2])	% Efficiency (DM1 per antibody divided by linker per antibody times 100) (N901 antibody with DM1; [3]) [%]	DM1/Ab (N901 antibody with DM1; [3])	Linker/Ab (N901 antibody; [4])	Linker/Ab (N901 antibody; [5])	Linker/Ab (N901 antibody; [6])	Linker/Ab (N901 antibody; [7])	DC4/Ab (N901 antibody with DC4; 2 h)	% efficiency (N901 antibody with DC4; 18 h) [%]	DC4/Ab (N901 antibody with DC4; 18 h)	conjugation efficiency (FIG. 7) (N901 antibody with DM1; 1.7-fold molar excess of DM1, compared with 100% efficiency of SSNPP)	% efficiency (N901 antibody with DC4; 2 h) [%]
CC(CCC(=O)ON1C(=O)CC(S(=O)(=O)O)C1=O)SSc1ccc([N+](=O)[O-])cn1 (centres unmarked) [SSNPP, N-Sulfosuccinimidyl 4-(5-nitro-2-pyridyldithio)-pentanoate]	100	25	≤ 50	93	3.7	4.3	93	3.8	4.0	4.1	4.2	4.2	4.3	98	4.1	–	–
CC(CCC(=O)ON1C(=O)CCC1=O)SSc1ccccn1 (centres unmarked) [SPP, reference compound]	–	–	–	70	4.6	4.3	77	4.3	6.6	5.6	5.6	5.6	4.1	91	5.1	not sufficient to achieve a similar efficiency	73
